{
  "sequences": {"note": "Sequences of proteins named here, by UniProt entry; tags and fusion partners are left off.", "UniProt P18054, whole entry, looked up": "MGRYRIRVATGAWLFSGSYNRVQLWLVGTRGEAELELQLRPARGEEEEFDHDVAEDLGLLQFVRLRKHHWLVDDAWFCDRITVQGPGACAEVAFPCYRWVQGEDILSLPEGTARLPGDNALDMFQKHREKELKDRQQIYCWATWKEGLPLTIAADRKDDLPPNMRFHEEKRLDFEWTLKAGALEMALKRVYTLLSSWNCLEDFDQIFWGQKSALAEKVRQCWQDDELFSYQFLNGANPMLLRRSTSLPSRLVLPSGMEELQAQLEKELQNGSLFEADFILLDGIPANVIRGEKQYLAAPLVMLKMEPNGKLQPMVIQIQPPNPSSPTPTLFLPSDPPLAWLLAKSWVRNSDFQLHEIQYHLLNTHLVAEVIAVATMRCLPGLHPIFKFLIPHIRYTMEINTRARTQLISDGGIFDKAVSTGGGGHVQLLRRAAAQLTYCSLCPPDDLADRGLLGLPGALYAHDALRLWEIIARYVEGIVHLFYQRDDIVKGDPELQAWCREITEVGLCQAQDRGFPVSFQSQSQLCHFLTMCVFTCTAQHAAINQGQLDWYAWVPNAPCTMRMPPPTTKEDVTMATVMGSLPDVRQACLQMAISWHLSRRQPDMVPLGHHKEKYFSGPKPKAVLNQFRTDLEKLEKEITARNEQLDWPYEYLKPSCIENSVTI"},
  "source": "PubChem BioAssay AID1671190",
  "about": "(National Center for Advancing Translational Sciences (NCATS), 2021)",
  "note": "In all, about 580,000 compounds went through this assay and about 6,100 (1.1%) were called active. Inconclusive means that the source gave no clear call. Such entries were picked first, then a sample of the others. Calls follow the shape of the dose curve; as a rule, active = well fitted inhibition curve with a large enough effect; inconclusive = small, poorly fitted or top-dose-only effect, or another doubt; inactive = no such curve, though single readings can be large or run the other way. Potencies of inconclusive entries are doubtful fits and often do not repeat. Potency is read from the fitted curve at half-maximal effect.",
  "data": [
    {"target": "Polyunsaturated fatty acid lipoxygenase ALOX12 (Homo sapiens) (UniProt P18054)", "assay": "Primary qHTS assay for inhibitors of human arachidonate 12S-lipoxygenase (ALOX12): Round 2", "conditions": "purified 12hLO, xylenol orange hydroperoxide absorbance; series mostly up to 108 µM", "summary_of_the_method": "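Purified human 12hLO (150 nM final) in 25 mM Hepes, 0.01% Triton X-100, pH 7.0 was preincubated 15 min at room temperature with compound. Then 40 uM arachidonic acid was added, 30 min. Hydroperoxide was read by Fe-XO absorbance ratio 573/405 nm.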", "values": [
      {"smiles": "O=C(CSc1cn[nH]n1)Nc1cccc(C(F)(F)F)c1", "Potency": "inactive"},
      {"smiles": "CC(=O)n1cc(N(C(=O)CCl)c2ccc(C)cc2)c2ccccc21", "Potency": "inconclusive: 50.1 µM [inhibitor, partial curve, poor fit]"},
      {"smiles": "CCOc1ccc(/C=C/C(=O)Nc2ccc(N3CCOCC3)cc2)cc1", "Potency": "inactive"},
      {"smiles": "Cc1sc2ncnc(N3CCC(C(=O)N(C)CC(=O)Nc4ccccc4Cl)CC3)c2c1C", "Potency": "inactive"},
      {"smiles": "Cc1ccc(OCC(=O)NNC(=S)NC(=O)c2cccs2)c(C)c1", "Potency": "inconclusive: 39.8 µM [inhibitor, partial curve, poor fit]"},
      {"smiles": "COc1cc(Nc2nc(-c3ccc(OC)c(OC)c3)nc3ccccc23)cc(OC)c1", "Potency": "inconclusive: 100 µM [inhibitor, partial curve, poor fit]"},
      {"smiles": "Cc1cc(C)c(NC(=O)c2ccc(CSc3ccc(Cl)cc3)cc2)c(C)c1", "Potency": "inconclusive: 100 µM [inhibitor, partial curve, poor fit]"},
      {"smiles": "Cc1nc(-c2cnccn2)n(CC(=O)Nc2ccccc2)c(=O)c1C", "Potency": "inactive"},
      {"smiles": "CC(C)N(C)C1CCN(c2nc(-c3ccncc3)nc3ccccc23)CC1", "Potency": "inactive"},
      {"smiles": "Cc1ccc(-n2c(=O)c3oc4ccccc4c3n(Cc3cccc(F)c3)c2=O)cc1C", "Potency": "inactive"},
      {"smiles": "CC1CCCC(C)N1NC(=O)c1cccc(S(=O)(=O)N2CCc3ccccc32)c1", "note": "(stereo not drawn)", "Potency": "inactive"},
      {"smiles": "CN(C)S(=O)(=O)Nc1cccc(NC(=O)CC23CC4CC(CC(C4)C2)C3)c1", "Potency": "inactive"},
      {"smiles": "CC1(C)C2CCC(C2)C1(C)NC(=O)CN1CCCC1", "note": "(stereo not drawn)", "Potency": "inconclusive: 0.631 µM [inhibitor, full curve, poor fit]"},
      {"smiles": "CC(C)(C)OC(=O)C(C#N)c1nc2ccccc2nc1Cl", "note": "(stereo not drawn)", "Potency": "inconclusive: 44.7 µM [inhibitor, partial curve, poor fit]"},
      {"smiles": "CC(C)C1Cc2ccccc2-c2[nH]c(=S)[nH]c(=O)c21", "note": "(stereo not drawn)", "Potency": "inconclusive: 3.55 µM [inhibitor, full curve, poor fit]"},
      {"smiles": "CCC(CC)=C(C#N)C(=O)NC1CCCC1", "Potency": "inconclusive: 5.62 µM [inhibitor, full curve, poor fit]"},
      {"smiles": "N#Cc1ncn(Cc2nc(-c3ccc(F)cc3)no2)n1", "Potency": "inconclusive: 4.47 µM [inhibitor, full curve, poor fit]"},
      {"smiles": "O=C(CSc1nnc(-c2ccco2)c(-c2ccco2)n1)c1ccccc1", "Potency": "active: 28.2 µM"},
      {"smiles": "C/C(=N\\OC(=O)c1ccc(F)cc1)c1ccc(C)cc1", "Potency": "inconclusive: 126 µM [inhibitor, single point]"},
      {"smiles": "NC(CCc1ccccc1)c1csc(NC(=O)NCC2CCCCC2)n1", "note": "(stereo not drawn)", "Potency": "inconclusive: 79.4 µM [inhibitor, single point]"},
      {"smiles": "Cc1nc2ccc(C(=O)N3CCC(OCc4cccnc4)CC3)cc2nc1C", "Potency": "inactive"},
      {"smiles": "CC(C)CNC(=O)N1c2ccccc2Sc2ccccc21", "Potency": "inconclusive: 100 µM [inhibitor, partial curve, poor fit]"},
      {"smiles": "Nc1nc(C23CC4CC(CC(C4)C2)C3)[nH]c(=O)n1", "Potency": "inconclusive: 35.5 µM [inhibitor, partial curve, poor fit]"},
      {"smiles": "Cc1ccc2nc(SC(C)C(=O)N3CCCCC3)[nH]c2c1", "note": "(stereo not drawn)", "Potency": "inactive"},
      {"smiles": "CCOCCCn1c(=S)[nH]c2cc(C(=O)N3CCN(C4CCCCC4)CC3)ccc2c1=O", "Potency": "inactive"},
      {"smiles": "Cc1nc2c(c(-c3ccc(O)cc3)n1)CN(Cc1ccc(OC(F)(F)F)cc1)CCC2", "Potency": "inconclusive: 70.8 µM [inhibitor, single point]"},
      {"smiles": "Cc1ccc(Cn2c(CO)cnc2SCC(=O)Nc2cccc(F)c2)cc1", "Potency": "inconclusive: 22.4 µM [inhibitor, full curve, poor fit]"},
      {"smiles": "Cc1ccn2cc(C(=O)NC3CCN(Cc4ccccc4)CC3)nc2c1", "Potency": "inconclusive: 11.2 µM [inhibitor, partial curve, poor fit]"},
      {"smiles": "COC(=O)c1cccc(C23CC4(C2)[C@H](CN(CC2CCCCC2)[C@@H]4c2ccccc2)C3c2ccccc2)c1", "note": "(stereo partly drawn)", "Potency": "inconclusive: 100 µM [inhibitor, partial curve, poor fit]"},
      {"smiles": "CC(=O)N1CCc2c(sc(NC(=O)CSc3ccc(F)cc3)c2-c2nc3ccccc3s2)C1", "Potency": "inconclusive: 50.1 µM [inhibitor, partial curve, poor fit]"},
      {"smiles": "CCc1ccc2c(C)nc(Nc3nc(C)c(CCC(C)C)c(=O)[nH]3)nc2c1", "Potency": "inactive"},
      {"smiles": "CC(C)(C)NC(=O)NC(=O)COC(=O)c1ccc(OC(F)(F)F)cc1", "Potency": "inconclusive: 0.112 µM [inhibitor, full curve, poor fit]"},
      {"smiles": "O=C(Cn1cc(S(=O)(=O)Cc2ccccc2Cl)c2ccccc21)Nc1ccc(F)cc1F", "Potency": "inconclusive: 126 µM [inhibitor, partial curve, poor fit]"},
      {"smiles": "CCc1nc2ccc(C(=O)N3CCN(C(C)=O)CC3)cn2c1N(CC)C(C)=O", "Potency": "inconclusive: 7.08 µM [inhibitor, full curve]"},
      {"smiles": "O=S(=O)(Nc1cccc(-c2cn3cccnc3n2)c1)c1ccc(F)cc1", "Potency": "inactive"},
      {"smiles": "N#CC1=C(S)N(c2ccc(F)cc2)C2(CCCCC2)NC1=O", "Potency": "inconclusive: 35.5 µM [inhibitor, partial curve, poor fit]"},
      {"smiles": "CC(=O)N1CCOc2ccc(S(=O)(=O)NCC3CCC(C(=O)Nc4ccc(C)cn4)CC3)cc21", "note": "(stereo not drawn)", "Potency": "inactive"},
      {"smiles": "COc1ccccc1-c1nccc(Nc2ccc(F)cc2)n1", "Potency": "inconclusive: 44.7 µM [inhibitor, partial curve, poor fit]"},
      {"smiles": "COc1ccccc1NC(=O)c1nn(-c2ccccc2)ccc1=O", "Potency": "inconclusive: 126 µM [inhibitor, single point]"},
      {"smiles": "O=C(Cn1c(-c2ccccc2)c[n+]2ccsc12)c1ccc(Br)cc1", "Potency": "inactive"},
      {"smiles": "O=C(CCC(=O)N1CCN(c2ccccn2)CC1)c1cccs1", "Potency": "inactive"},
      {"smiles": "CCOC(=O)c1ccccc1NC(=O)N1CCCC(CN2CCc3ccccc3C2)C1", "note": "(stereo not drawn)", "Potency": "inconclusive: 14.1 µM [inhibitor, full curve]"},
      {"smiles": "CCOc1ccccc1N1CCN(c2nc3ccccc3nc2C(C#N)C(=O)OC)CC1", "note": "(stereo not drawn)", "Potency": "inactive"},
      {"smiles": "COc1ccc(C2=NC(C)(C)Cc3cc(OC)c(OC)cc32)cc1OC", "Potency": "inconclusive: 70.8 µM [inhibitor, partial curve, poor fit]"},
      {"smiles": "Cc1cccc(NC2(C(=O)O)CCCC2)c1", "Potency": "inconclusive: 56.2 µM [inhibitor, partial curve, poor fit]"},
      {"smiles": "COc1ccc(NC(=O)O[C@@H]2CO[C@H]3[C@@H]2OC[C@@H]3NC(=O)NC2CCCCC2)cc1", "Potency": "inconclusive: 112 µM [inhibitor, partial curve, poor fit]"},
      {"smiles": "O=C(COC(=O)c1ccc2ccccc2n1)Nc1ccccc1Br", "Potency": "inconclusive: 17.8 µM [inhibitor, partial curve, poor fit]"},
      {"smiles": "CCC(C)c1ccc(NC(=S)N2CCCC2)cc1", "note": "(stereo not drawn)", "Potency": "inconclusive: 63.1 µM [inhibitor, partial curve, poor fit]"},
      {"smiles": "CCC(C)NC(=O)c1ccc(CNC(=O)C2CCCC2)cc1", "note": "(stereo not drawn)", "Potency": "inactive"},
      {"smiles": "O=S(=O)(Nc1ccc(-n2cnnn2)cc1)c1ccc(Cl)s1", "Potency": "inconclusive: 44.7 µM [inhibitor, partial curve, poor fit]"},
      {"smiles": "O=C(/C=C/C=C/c1ccccc1)c1ccco1", "Potency": "inconclusive: 39.8 µM [inhibitor, partial curve, poor fit]"},
      {"smiles": "Cc1ccc(S(=O)(=O)N2CCN(c3ccc([N+](=O)[O-])c(NCCN4CCOCC4)c3)CC2)cc1", "Potency": "inactive"},
      {"smiles": "CCn1c(C)c(C)c2cc(C(=O)NCCc3cc(OC)ccc3OC)ccc21", "Potency": "inconclusive: 63.1 µM [inhibitor, partial curve, poor fit]"},
      {"smiles": "CC1=C[C@@H](CO)[C@H](C(C)C)C[C@H]1Cc1nnc(C(C)(C)C)o1", "Potency": "inactive"},
      {"smiles": "O=C(Nc1ccc(F)cc1)c1nc2ccccc2nc1N1CCCCC1", "Potency": "inconclusive: 70.8 µM [inhibitor, single point]"},
      {"smiles": "CCC1Oc2ccc(NS(=O)(=O)c3ccccc3)cc2CN(Cc2ccc(F)cc2)C1=O", "note": "(stereo not drawn)", "Potency": "active: 14.1 µM"},
      {"smiles": "CCC(=O)N1Cc2cc(C(=O)NCC(F)(F)F)nc(-c3cccc(-c4cncnc4)c3)c2[C@H]1CCO", "Potency": "inconclusive: 100 µM [inhibitor, single point]"},
      {"smiles": "CC(=O)c1cccc(NC(=O)C(Sc2ccc(C(F)(F)F)cn2)c2ccccc2)c1", "note": "(stereo not drawn)", "Potency": "inactive"},
      {"smiles": "COCCN(Cc1ccccc1F)Cc1cc2c(cc1OC)OCO2", "Potency": "inactive"},
      {"smiles": "CN1CC(=O)N(C2CCCC2)Cc2c(NC3CC3)ncnc21", "Potency": "inconclusive: 10 µM [inhibitor, full curve]"},
      {"smiles": "Cn1cccc1CN1C[C@@H](COc2ccncc2)[C@H](c2ccccn2)C1", "Potency": "inactive"},
      {"smiles": "O=[N+]([O-])c1cc(S(=O)(=O)Nc2ccc(Cl)cc2)ccc1N/N=C/c1ccc(-c2ccccc2)cc1", "Potency": "inconclusive: 44.7 µM [inhibitor, partial curve]"},
      {"smiles": "O=S(=O)(NC[C@H]1OC[C@@H](NCc2cccnc2)[C@@H]1O)c1ccccc1", "Potency": "inactive"},
      {"smiles": "Cc1ccc(C(C)C)cc1OCCCCN1CCCC1", "Potency": "inconclusive: 0.794 µM [inhibitor, full curve, poor fit]"},
      {"smiles": "CCCCCN(CCCCC)C(=S)Nc1cccc(Cl)c1", "Potency": "inconclusive: 39.8 µM [inhibitor, partial curve, poor fit]"},
      {"smiles": "COc1ccc(-c2ccnc(-c3ccncc3)n2)cc1", "Potency": "inconclusive: 112 µM [inhibitor, single point]"},
      {"smiles": "Cc1cc2ccccc2n1CC(=O)NCC(=O)N1CCCC1", "Potency": "inconclusive: 25.1 µM [inhibitor, partial curve, poor fit]"},
      {"smiles": "COC[C@@H]1[C@H](C(=O)NCc2cc(OC)ccc2OC)CCC(=O)N1C", "Potency": "inconclusive: 79.4 µM [inhibitor, single point]"}
    ]}
  ]
}
